Data published in PubChem BioAssay AID1487 (National Center for Advancing Translational Sciences (NCATS), 2009).
The list shows a part of the results. The main result of the screen is listed elsewhere. These columns were measured beside it and carry no call. Compounds called inactive in the main read-out are mostly missing here. Potencies come from curve fits of mixed quality, noted in brackets.

Experiment: qHTS Assay for Modulators of Lamin A Splicing
Conditions: HeLa LMNA splicing GFP/RFP minigene ratio, 48 h
In short: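 S3 HeLa cells stably expressing lamin A-EGFP splicing minigene plus DsRed2, 600 cells/well, 48 h compound exposure at 37C. Laser-scanning cytometry; analysed as GFP (500-530 nm)/RFP (575-640 nm) total intensity ratio; 0.5% DMSO vehicle.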

[1] = measured here: RFP viability control channel
[2] = measured here: GFP splicing reporter channel

Structure (SMILES)	AC50 [1]	AC50 [2]
Cc1ccc(C(=O)NNC(=O)c2cc3cc4ccccc4nc3s2)cc1	35.5 µM [falling, single point]	–
CCCCn1c(SCC(=O)N2CCC(C)CC2)nc2ccsc2c1=O	31.6 µM [rising, single point]	–
CCN(CC)C(=O)C1CCCN(C(=S)Nc2cccc3ccccc23)C1 (configuration not stated)	31.6 µM [rising, single point]	–
Cc1ccc(S(=O)(=O)N2CCC(=O)N(C(COCc3ccc(Cl)cc3)C(C)C)CC2)cc1 (configuration not stated)	17.8 µM [rising, single point]	–
O=C(NCCNC(=O)c1cc(OCC(F)(F)F)ccc1OCC(F)(F)F)Nc1cccc(C(F)(F)F)c1	15.8 µM [rising, single point]	11.2 µM [rising, single point]
CC(=O)Nc1c(C(=O)O)oc2ccc(Cl)cc12	–	2.51 µM [falling, partial curve, poor fit]
Cc1nnc(N/N=C/c2ccc([N+](=O)[O-])cc2)n1N	–	35.5 µM [falling, single point]
Cc1cccn2c(=O)c(C=Nc3c(C)n(C)n(-c4ccccc4)c3=O)c(N3CCCC3)nc12	11.2 µM [rising, single point]	–
Cc1ccc(-n2ncc3c(NCc4ccco4)ncnc32)c(C)c1	15.8 µM [rising, single point]	–
COc1ccc(NC(=S)N2CCC(C(O)(c3ccccc3)c3ccccc3)CC2)cc1	14.1 µM [rising, single point]	–
CCN(CC)C(=S)SCC(=O)NC12CC3CC(CC(C3)C1)C2	12.6 µM [rising, partial curve]	10 µM [rising, partial curve]
Cc1ccnn1CC(=O)N/N=C/c1cccs1	0.126 µM [rising, full curve, poor fit]	0.1 µM [rising, full curve, poor fit]
COc1cccc(-c2cc3nc4c(c(N5CCC6(CC5)OCCO6)n3n2)CCCC4)c1	20 µM [rising, single point]	17.8 µM [rising, partial curve, poor fit]
CCC(=O)NC(=S)Nc1ccc(NC(=O)c2ccco2)cc1	–	6.31 µM [rising, single point]
Cc1ccccc1OCCC(=O)Nc1cccc(S(=O)(=O)Nc2ccccc2Cl)c1	25.1 µM [rising, partial curve]	25.1 µM [rising, single point]
N#CC1=C(N)Oc2c(ccc3ccccc23)C1c1ccsc1 (configuration not stated)	1.41 µM [falling, full curve]	1.41 µM [falling, full curve]
